# Some results were stated once for a whole list of compounds, not compound by compound.
# Tested on: mice
# Experiment: radiant heat tailflick assay after topical administration (tail immersed in DMSO drug solution)
# Type: in vivo
# Settings: lidocaine 0.9 mM, alone or combination, 2 minutes exposure
Compound,"duration of response (levorphanol 1.8 mM, FIG. 5a)","duration of response (buprenorphine 0.5 mM, FIG. 5b)"
CN1CC[C@]23CCCC[C@H]2[C@H]1Cc1ccc(O)cc13 [Levorphanol],≤ 5 min,–
CCN(CC)CC(=O)Nc1c(C)cccc1C [Lidocaine],≤ 5 min,less than 10 minutes
